Experimental data taken from US9486471B2, “Combination therapy for the treatment of cancer” (McMaster University, priority 2012, dated 2016).
At least one structure is not confirmed: it was looked up by name or label, or the drawing left a doubt.

System: AML patient blast cells
Experiment: Methylcellulose colony-forming assay, AML patient blast-CFU
Type: cell-based, human
Settings: concentrations >1 μM, single drug
Procedure: AML/HPSC Cell Culture. AML cell lines, namely, OCI-AML2 (M4), OCI-AML3 (M4), HL-60 (M2) and MV-4-11(M5) were cultured in RPMI (Gibco) supplemented with 5% heated-inactivated FBS (HyClone). For DR agonist studies with R(+)-7-Hydroxy-DPAT hydrobromide (Sigma), serum-free conditions were employed instead due to the prevalence of dopamine in FBS (Little et al., 2002). AML patient blasts were cultured in IMDM supplemented with 5% heated inactivated FBS (HyClone), 5 ng/mL IL3 (R&D systems), 5×10^−5 M β-mercaptoethanol (Sigma) and BIT (StemCell Technologies). HSC media contained IMDM supplemented with 1% BSA (Sigma), 100 ng/mL SCF (R&D systems), 100 ng/mL Flt-3L (R&D systems) and 20 ng/mL TPO (R&D systems). Patient HSPC and AML samples were treated with compound or DMSO-vehicle (0.1%) for 24 h prior to CFU plating or xenotransplantation studies.
Methylcellulose Colony-Forming Assay. AML patient or CB lin− cells were cultured 24 hours in the presence of compound or DMSO-vehicle (0.1%) control. AML cells were plated at 50 000 cells/mL in Methocult GF H4434 (Stem Cell Technologies). CB lin− cells were plated at 1000 cells/mL in Methocult GF H4434 (Stem Cell Technologies). Colonies were scored after 14 days of culture using standard morphological criteria.

## Nc1ccn([C@@H]2O[C@H](CO)[C@@H](O)[C@@H]2O)c(=O)n1 [AraC, Arabinofuranosyl Cytidine]
  toxicity to AML CFU blasts: complete toxicity
